Some of the results follow. Shown are side measurements of this screen, not its main read-out; they come without a call. Compounds called inactive in the main read-out are mostly missing here. Words in brackets tell the shape of the fitted curve; partial curves, single points and poor fits give uncertain potencies.
Experiment: qHTS Assay for Lipid Storage Modulators in Drosophila S3 Cells;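 for cell number change: cells counted by Cell Tracker Red CMTPX staining in the red channel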
Conditions: BODIPY lipid droplet fluorescence, 18-24 h; for cell number change: measured here: cell count max response, cells fed with added oleic acid
Summary of the method: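 Drosophila S3 cells got compounds at several concentrations plus oleic acid (400 uM solution). Laser-scanning cytometry with 488 nm excitation read lipid droplets at 500-530 nm and cells at 575-640 nm. Percent activity was relative to 20 uM Triacsin C.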

[1] = measured here: cell number channel AC50, cells fed with added oleic acid
[2] = measured here: lipid fluorescence (Fed channel) AC50, cells fed with added oleic acid

| Structure (SMILES) | cell number change [%] | AC50 [1] | AC50 [2] |
| --- | --- | --- | --- |
| O=C(CSc1nnc(-c2ccccc2)n1Cc1ccccc1)NC1CC1 | -6.12 | – | – |
| CCOC(=O)CNS(=O)(=O)c1ccc(S(=O)(=O)N2CCCC2)cc1 | -32.9 | 2.06 µM [falling, full curve] | – |
| O=C(NCCN1CCN(C(=O)c2cccc(Br)c2)CC1)C(=O)NCc1ccccc1 | 37.1 | 16.4 µM [rising, partial curve, poor fit] | 29.1 µM [rising, single point] |
| CCN(CC)C(=O)CN(c1ccc(F)c(Cl)c1)S(C)(=O)=O | 8.89 | – | – |
| CCOC(=O)c1nn(-c2ccccc2)c(=O)c2c(N)scc12 | -22.1 | – | – |
| CCOC(=O)[C@@H]1[C@H]2COc3cc(OC)ccc3[C@H]2N2C(=O)N(c3cccc(Cl)c3)C(=O)[C@]12C | 102 | 32.6 µM [rising, single point] | 6.51 µM [rising, single point] |
| O=C1c2ccccc2C(=O)c2c1oc(C(F)(F)F)c2C(=O)c1ccccc1 | -6.83 | – | 0.259 µM [rising, full curve] |
| CC1CN(S(=O)(=O)c2cc(C(=O)NCCC3=CCCCC3)ccc2Cl)CC(C)O1 (stereo not given) | -88.4 | – | – |
| C=CCN1C(=O)C(C)NC1=S (stereo not given) | 32.4 | 0.326 µM [rising, full curve] | – |
| OC12CC3C[C@H](C1)C(N1CCOCC1)[C@@H](C3)C2 (stereo not given in full) | 9.26 | – | 4.61 µM [rising, full curve] |
| Cn1cccc1CC(=O)NNC(=S)Nc1ccc(Cl)cc1 | 3.58 | – | 29.1 µM [rising, single point] |
| Cc1nn(-c2ccccc2)c(Cl)c1C(=O)NCC(C)c1ccccc1 (stereo not given) | 14 | – | 0.13 µM [rising, full curve, poor fit] |
| O=C(Nc1cccc(-n2cnnn2)c1)c1ccc(OC(F)(F)F)cc1 | 22.6 | – | – |
| O=S(=O)(c1ccc(Br)cc1)N1CCCc2ccccc21 | -39.4 | 18.4 µM [falling, single point] | – |
| CSc1nc(=NC(C)=O)ss1 | -176 | 29.1 µM [falling, single point] | 5.17 µM [falling, full curve] |
| CC1(C)CC(CCNC(=O)CCl)(c2ccccc2)CCO1 (stereo not given) | 16.4 | – | – |
| CCOc1ccccc1OCCOc1ccc(F)cc1 | -21.9 | – | – |
| O=S(=O)(c1cc(Cl)ccc1Br)N1CCOCC1 | 7.11 | – | 2.91 µM [falling, partial curve] |
| O=C(NNC(=S)Nc1cccc2ccccc12)c1cccc(Br)c1 | 46.8 | 0.411 µM [rising, full curve, poor fit] | – |
| CC(C)N(C(=O)CSc1nc2ccccc2n1Cc1ccc(F)cc1)C(C)C | -32 | 20.6 µM [falling, single point] | 29.1 µM [falling, single point] |
| CCC1CCCCN1CCNS(=O)(=O)c1ccc2c(c1)oc(=O)n2C (stereo not given) | 0.404 | – | 0.411 µM [rising, partial curve, poor fit] |
| COc1ccc(-c2csc3ncnc(N4CCN(S(=O)(=O)c5ccc(C)c(C)c5)CC4)c23)cc1 | 8.15 | – | 0.184 µM [rising, full curve, poor fit] |

| Structure (SMILES) | cell number change [%] | AC50 [1] | AC50 [2] |
| --- | --- | --- | --- |
| CCCC/C(O)=C1\C(=O)CC(C)(C)CC1=Nc1ccccc1OC | 21 | – | – |
| O=C(C1CCN(S(=O)(=O)c2cccc3cccnc23)CC1)N1CCN(c2ccc(Cl)cc2)CC1 | 15.6 | – | 23.1 µM [falling, single point] |
| O=C(N/N=C/c1c(O)ccc2ccccc12)c1ccc(Br)o1 | 117 | 29.1 µM [rising, single point] | – |
| CCC(NC(=O)CNC(=O)c1ccc2c(c1)OCO2)c1ccc(Br)cc1 (stereo not given) | 39.8 | 23.1 µM [rising, single point] | – |
| COC(=O)c1cn(NC(=O)Cc2ccc(Cl)cc2)c(=O)c2ccccc12 | -1.28 | 6.51 µM [rising, single point] | – |
| COc1ccc(/C=N/NC(=O)c2nc(Cl)c(Cl)c(N)c2Cl)cc1COc1ccccc1F | 3.75 | 3.66 µM [rising, single point] | – |
| O=c1c2cc(Cl)cc(Cl)c2nc2n1CCC2 | 92.3 | 0.366 µM [rising, full curve, poor fit] | – |
| Cc1ccccc1NC(=O)COC(=O)c1cc(S(=O)(=O)N2CCOCC2)ccc1C | 28.7 | – | 32.6 µM [rising, partial curve, poor fit] |
| O=c1c2c3c(sc2nc2n1CCC2)CCCCC3 | 22.2 | – | – |
| COc1ccccc1NS(=O)(=O)c1cccc(NC(=O)Nc2ccc(Cl)cc2)c1 | -17.8 | – | 0.00326 µM [falling, full curve, poor fit] |
| O=C(NCCN1C(=O)S/C(=C\c2cccs2)C1=O)[C@H](Cc1ccccc1)N1C(=O)c2ccccc2C1=O | -47.5 | 18.4 µM [falling, single point] | – |
| C/C(=N\NC(=O)c1cccc(C)c1)c1cccc(NC(=O)c2ccco2)c1 | -31.6 | 29.1 µM [falling, single point] | 29.1 µM [falling, single point] |
| CC(C)(C)C(=O)/C=C1\NC(=O)CS1 | – | – | 0.326 µM [rising, partial curve, poor fit] |
| COc1ccccc1CCC(=O)NNC(=O)c1ccncc1 | -6.66 | 0.411 µM [falling, full curve, poor fit] | 1.84 µM [falling, partial curve, poor fit] |
| c1coc(C2OCC3(CO2)COC(c2ccco2)OC3)c1 (stereo not given) | -23.9 | – | – |
| CC1(C)Cc2ccccc2/C(=C/C(=O)N2CCCCCC2)N1 | 23 | – | 7.31 µM [rising, partial curve, poor fit] |
| CCOc1ccc(CN(C)C(=O)c2ccc(NC(=O)CC3SC(N4CCCC4)=NC3=O)cc2)cc1 (stereo not given) | – | – | 0.00411 µM [rising, full curve, poor fit] |
| Cc1ccc(-c2c(C#N)c(N)nc3c2CCCCC3)o1 | 0.0123 | – | 0.82 µM [rising, full curve, poor fit] |
| COc1cccc(-c2ccc(NC(=O)C3CCCN(Cc4cnn(C)c4C)C3)cc2)c1 (stereo not given) | 14.7 | – | – |
| Cc1cccc(NC(=O)CCNS(=O)(=O)c2cccc3nsnc23)c1C | 13.3 | – | – |
| COc1ccc(N(CC(=O)N2CCN(c3ccccc3F)CC2)S(=O)(=O)c2c(C)n[nH]c2C)cc1 | 18.5 | 0.651 µM [falling, single point] | 0.58 µM [falling, single point] |
| CCOC(=O)C1CCCN(C(=O)CCCOc2cc(=O)n(C)c3ccccc23)C1 (stereo not given) | 131 | 16.4 µM [rising, partial curve, poor fit] | 6.51 µM [rising, single point] |

Single records (already shown). Order of values: cell number change [%]	AC50 [1]	AC50 [2]
`COc1cccc(-c2ccc(NC(=O)C3CCCN(Cc4cnn(C)c4C)C3)cc2)c1` (stereo not given) as listed: 14.7	–	–
`O=C(C1CCN(S(=O)(=O)c2cccc3cccnc23)CC1)N1CCN(c2ccc(Cl)cc2)CC1` as listed: 15.6	–	23.1 µM [falling, single point]
`CC(C)(C)C(=O)/C=C1\NC(=O)CS1` as listed: –	–	0.326 µM [rising, partial curve, poor fit]

Remaining list, next part.

| Structure (SMILES) | cell number change [%] | AC50 [1] | AC50 [2] |
| --- | --- | --- | --- |
| Cc1nn(Cc2ccc([N+](=O)[O-])cc2)c(=O)n1N(C)c1ncc(C(F)(F)F)cc1Cl | 16.3 | – | 2.59 µM [rising, partial curve] |
| c1cncc(C(c2nnnn2C2CCCC2)N2CCCC2)c1 (stereo not given) | 11.8 | 0.13 µM [rising, full curve] | 0.146 µM [rising, full curve] |
| O=C(CSc1nnc(CNC(=O)c2ccco2)o1)Nc1nc2ccccc2s1 | -27.9 | – | 25.9 µM [falling, single point] |
| O=C(CSCc1n[nH]c(=O)[nH]1)NCCOc1cccc(Oc2ccccc2)c1 | 2.43 | – | – |
| Cc1ccc(S(=O)(=O)N(C)c2ccc(OCC(=O)Nc3ccc(C(=O)N(C)C)cc3)cc2)cc1C | -6.84 | – | – |
| Cc1cccc2c(N=Nc3ccccc3)c(O)[nH]c12 | 147 | 20.6 µM [rising, single point] | – |
| Brc1ccc(-c2nc3ncccn3c2NC2CCCCC2)o1 | 26.4 | 4.11 µM [rising, single point] | 16.4 µM [rising, partial curve] |
| Cc1nnc(NC(=O)CSc2nnc(CCc3nc4ccccc4[nH]3)n2C)s1 | 4.61 | – | – |
| CSc1ccc(C2N=C(c3ccccc3)NO2)cc1 (stereo not given) | 4.03 | – | 2.91 µM [rising, single point] |
| C/C(N)=C(/C#N)C(=O)COC(=O)CCC1CCCC1 | -106 | 23.1 µM [falling, partial curve] | – |
| COc1ccc(C(C#N)(CCC#N)CCC#N)cc1OC | 0.431 | – | 29.1 µM [falling, single point] |
| O=C(Cc1ccc(S(=O)(=O)N2CCOCC2)s1)Nc1ccc(N2CCOCC2)cc1 | 50.7 | – | – |
| CCC(O)(C(=O)Nc1ccccc1C(F)(F)F)c1ccccc1OC (stereo not given) | -6.75 | – | 29.1 µM [rising, single point] |
| COc1ccc(-n2c(SC(CN3CCCCC3)CN3CCCC3=O)nc3ccccc3c2=O)cc1 (stereo not given) | -29.1 | – | 10.3 µM [falling, partial curve] |
| CCC(C(=O)OC)n1cnc2c(nnn2-c2cccc(OC)c2)c1=O (stereo not given) | 51.4 | 10.3 µM [rising, partial curve, poor fit] | – |
| O=C(CN1c2cccc3cccc(c23)S1(=O)=O)N1CCOCC1 | 7.14 | – | 0.206 µM [falling, full curve] |
| O=C(O)c1ccc2ncsc2c1 | 1.93 | – | 0.103 µM [falling, full curve, poor fit] |
| Cc1cc(C)c(C(=O)OCC(=O)NCc2cccs2)c(C)c1 | 13.6 | – | 0.651 µM [rising, single point] |
| O=C(NCC(=O)N1CCCCCC1)c1ccc(Cl)cc1 | 3.85 | – | 20.6 µM [rising, single point] |
| COc1ccc(CCNC(=O)CSc2nnc3c(n2)[nH]c2ccc(F)cc23)cc1OC | 24.4 | – | 6.51 µM [rising, single point] |

Some of the entries so far, with bars between the fields:
Structure (SMILES) | cell number change [%] | AC50 [1] | AC50 [2]
O=C(NCCN1CCN(C(=O)c2cccc(Br)c2)CC1)C(=O)NCc1ccccc1 | 37.1 | 16.4 µM [rising, partial curve, poor fit] | 29.1 µM [rising, single point]
CCN(CC)C(=O)CN(c1ccc(F)c(Cl)c1)S(C)(=O)=O | 8.89 | – | –

— PubChem BioAssay AID2685 (National Center for Advancing Translational Sciences (NCATS), 2010)
